Results taken from the supplement of paper PMC10849652.
Some of the results follow.

Chains of the proteins cited; added tags and fusions are not shown. Lines headed by an entry give the natural chain unless they say otherwise; changes in a name come on top.
UniProt Q9UHY8: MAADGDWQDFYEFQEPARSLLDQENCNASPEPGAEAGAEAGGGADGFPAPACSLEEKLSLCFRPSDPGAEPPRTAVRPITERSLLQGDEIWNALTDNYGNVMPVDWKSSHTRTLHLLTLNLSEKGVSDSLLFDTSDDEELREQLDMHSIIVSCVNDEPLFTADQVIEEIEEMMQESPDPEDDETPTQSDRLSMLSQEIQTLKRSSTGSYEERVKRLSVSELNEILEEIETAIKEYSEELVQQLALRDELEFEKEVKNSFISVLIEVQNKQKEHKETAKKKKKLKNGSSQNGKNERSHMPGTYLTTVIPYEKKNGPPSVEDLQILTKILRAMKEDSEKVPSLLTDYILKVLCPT
UniProt Q96ND0: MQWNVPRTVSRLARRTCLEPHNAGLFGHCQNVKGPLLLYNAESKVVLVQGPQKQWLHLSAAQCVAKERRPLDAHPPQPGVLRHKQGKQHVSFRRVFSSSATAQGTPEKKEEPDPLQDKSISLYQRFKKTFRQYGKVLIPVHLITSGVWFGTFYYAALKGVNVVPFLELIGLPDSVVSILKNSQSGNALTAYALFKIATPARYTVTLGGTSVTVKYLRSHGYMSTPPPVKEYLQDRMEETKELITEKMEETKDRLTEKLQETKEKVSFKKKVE
UniProt Q8N0W3: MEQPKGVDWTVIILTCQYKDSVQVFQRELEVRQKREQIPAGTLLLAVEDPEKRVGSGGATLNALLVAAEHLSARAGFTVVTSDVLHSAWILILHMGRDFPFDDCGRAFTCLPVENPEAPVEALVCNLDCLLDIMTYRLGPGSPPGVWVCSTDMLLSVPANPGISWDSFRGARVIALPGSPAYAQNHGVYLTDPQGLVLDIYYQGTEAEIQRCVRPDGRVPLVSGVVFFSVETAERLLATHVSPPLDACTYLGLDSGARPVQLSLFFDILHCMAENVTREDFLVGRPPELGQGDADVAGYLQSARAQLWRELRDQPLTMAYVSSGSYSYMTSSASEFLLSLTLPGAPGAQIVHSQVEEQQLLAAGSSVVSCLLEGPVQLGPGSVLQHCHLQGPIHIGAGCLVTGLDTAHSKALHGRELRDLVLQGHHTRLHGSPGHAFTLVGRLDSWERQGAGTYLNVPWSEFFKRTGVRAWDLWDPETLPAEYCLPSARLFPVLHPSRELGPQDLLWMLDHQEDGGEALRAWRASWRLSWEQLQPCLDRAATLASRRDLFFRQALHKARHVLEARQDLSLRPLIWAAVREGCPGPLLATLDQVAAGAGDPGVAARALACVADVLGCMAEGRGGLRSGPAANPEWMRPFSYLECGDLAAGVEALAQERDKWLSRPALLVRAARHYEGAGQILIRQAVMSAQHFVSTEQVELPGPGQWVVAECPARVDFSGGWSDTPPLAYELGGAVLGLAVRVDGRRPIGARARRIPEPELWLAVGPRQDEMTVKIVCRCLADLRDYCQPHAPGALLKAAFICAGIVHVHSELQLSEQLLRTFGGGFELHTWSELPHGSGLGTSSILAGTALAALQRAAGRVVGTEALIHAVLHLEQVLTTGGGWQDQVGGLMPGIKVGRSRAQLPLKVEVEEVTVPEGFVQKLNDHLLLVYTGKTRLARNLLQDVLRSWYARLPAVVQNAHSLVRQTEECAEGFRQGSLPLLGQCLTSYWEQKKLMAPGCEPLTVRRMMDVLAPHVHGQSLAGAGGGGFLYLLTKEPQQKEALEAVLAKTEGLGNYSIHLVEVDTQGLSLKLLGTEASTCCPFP
UniProt Q96KR6: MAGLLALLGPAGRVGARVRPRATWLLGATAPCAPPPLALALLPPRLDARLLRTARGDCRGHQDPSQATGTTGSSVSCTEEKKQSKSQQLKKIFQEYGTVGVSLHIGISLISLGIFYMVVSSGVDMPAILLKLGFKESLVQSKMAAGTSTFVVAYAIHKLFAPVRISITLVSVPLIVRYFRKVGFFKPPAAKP
UniProt Q8IW50: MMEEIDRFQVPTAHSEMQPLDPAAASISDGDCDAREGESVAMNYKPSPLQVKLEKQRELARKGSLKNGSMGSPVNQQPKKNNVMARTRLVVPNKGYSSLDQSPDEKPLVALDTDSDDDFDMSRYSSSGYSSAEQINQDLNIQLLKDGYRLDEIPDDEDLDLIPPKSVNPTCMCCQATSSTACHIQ
UniProt Q00688: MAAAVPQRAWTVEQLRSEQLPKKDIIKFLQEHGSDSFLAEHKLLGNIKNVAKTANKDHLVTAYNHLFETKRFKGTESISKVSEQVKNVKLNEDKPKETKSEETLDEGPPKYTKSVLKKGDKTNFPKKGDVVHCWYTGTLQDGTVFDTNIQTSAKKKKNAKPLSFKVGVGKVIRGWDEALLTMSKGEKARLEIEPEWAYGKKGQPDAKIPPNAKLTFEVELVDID
UniProt P22570: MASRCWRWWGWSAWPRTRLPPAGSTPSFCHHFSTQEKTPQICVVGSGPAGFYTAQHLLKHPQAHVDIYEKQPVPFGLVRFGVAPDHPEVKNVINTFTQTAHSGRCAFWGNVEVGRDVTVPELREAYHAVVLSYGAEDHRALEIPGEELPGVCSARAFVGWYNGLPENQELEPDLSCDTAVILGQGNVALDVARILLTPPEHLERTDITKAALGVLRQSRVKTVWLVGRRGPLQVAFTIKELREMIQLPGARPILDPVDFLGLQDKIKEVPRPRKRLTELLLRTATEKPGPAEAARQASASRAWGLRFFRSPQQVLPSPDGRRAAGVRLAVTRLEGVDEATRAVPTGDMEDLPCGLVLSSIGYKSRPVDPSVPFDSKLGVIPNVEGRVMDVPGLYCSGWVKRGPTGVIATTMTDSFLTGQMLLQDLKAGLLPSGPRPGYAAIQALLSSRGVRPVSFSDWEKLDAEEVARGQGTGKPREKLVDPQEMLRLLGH
UniProt P98173: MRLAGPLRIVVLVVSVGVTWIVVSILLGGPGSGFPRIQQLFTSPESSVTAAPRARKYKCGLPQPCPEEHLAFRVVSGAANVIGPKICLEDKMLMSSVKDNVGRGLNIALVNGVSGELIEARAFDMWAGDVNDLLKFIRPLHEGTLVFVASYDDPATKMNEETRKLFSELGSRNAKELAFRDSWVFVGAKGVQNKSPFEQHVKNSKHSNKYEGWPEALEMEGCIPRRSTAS
UniProt Q8N8J7: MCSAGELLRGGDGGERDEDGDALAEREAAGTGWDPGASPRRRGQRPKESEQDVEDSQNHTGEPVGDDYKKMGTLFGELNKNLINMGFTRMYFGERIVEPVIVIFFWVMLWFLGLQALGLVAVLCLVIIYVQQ
UniProt Q96C11: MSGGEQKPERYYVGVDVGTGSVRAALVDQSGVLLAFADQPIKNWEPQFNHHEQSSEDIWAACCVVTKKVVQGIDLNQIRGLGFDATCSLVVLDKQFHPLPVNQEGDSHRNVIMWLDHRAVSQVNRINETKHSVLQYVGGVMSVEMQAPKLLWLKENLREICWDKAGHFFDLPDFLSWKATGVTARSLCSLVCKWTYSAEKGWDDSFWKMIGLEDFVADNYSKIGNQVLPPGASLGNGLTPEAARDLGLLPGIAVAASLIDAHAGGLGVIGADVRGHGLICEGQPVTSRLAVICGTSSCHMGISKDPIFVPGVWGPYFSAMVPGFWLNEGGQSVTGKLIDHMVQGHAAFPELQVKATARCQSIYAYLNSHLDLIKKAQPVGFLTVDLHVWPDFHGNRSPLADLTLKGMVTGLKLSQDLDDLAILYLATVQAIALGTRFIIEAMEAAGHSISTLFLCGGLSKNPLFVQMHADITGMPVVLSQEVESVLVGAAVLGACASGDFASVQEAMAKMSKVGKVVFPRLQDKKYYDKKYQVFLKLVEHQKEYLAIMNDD
UniProt Q9Y680: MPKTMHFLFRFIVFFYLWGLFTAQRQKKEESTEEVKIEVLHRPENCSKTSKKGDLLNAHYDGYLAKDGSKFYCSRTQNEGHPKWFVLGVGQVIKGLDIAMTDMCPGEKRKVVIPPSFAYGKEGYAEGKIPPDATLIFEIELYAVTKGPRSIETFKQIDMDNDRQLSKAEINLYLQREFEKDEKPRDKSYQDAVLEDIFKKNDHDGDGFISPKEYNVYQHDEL
UniProt Q8TF40: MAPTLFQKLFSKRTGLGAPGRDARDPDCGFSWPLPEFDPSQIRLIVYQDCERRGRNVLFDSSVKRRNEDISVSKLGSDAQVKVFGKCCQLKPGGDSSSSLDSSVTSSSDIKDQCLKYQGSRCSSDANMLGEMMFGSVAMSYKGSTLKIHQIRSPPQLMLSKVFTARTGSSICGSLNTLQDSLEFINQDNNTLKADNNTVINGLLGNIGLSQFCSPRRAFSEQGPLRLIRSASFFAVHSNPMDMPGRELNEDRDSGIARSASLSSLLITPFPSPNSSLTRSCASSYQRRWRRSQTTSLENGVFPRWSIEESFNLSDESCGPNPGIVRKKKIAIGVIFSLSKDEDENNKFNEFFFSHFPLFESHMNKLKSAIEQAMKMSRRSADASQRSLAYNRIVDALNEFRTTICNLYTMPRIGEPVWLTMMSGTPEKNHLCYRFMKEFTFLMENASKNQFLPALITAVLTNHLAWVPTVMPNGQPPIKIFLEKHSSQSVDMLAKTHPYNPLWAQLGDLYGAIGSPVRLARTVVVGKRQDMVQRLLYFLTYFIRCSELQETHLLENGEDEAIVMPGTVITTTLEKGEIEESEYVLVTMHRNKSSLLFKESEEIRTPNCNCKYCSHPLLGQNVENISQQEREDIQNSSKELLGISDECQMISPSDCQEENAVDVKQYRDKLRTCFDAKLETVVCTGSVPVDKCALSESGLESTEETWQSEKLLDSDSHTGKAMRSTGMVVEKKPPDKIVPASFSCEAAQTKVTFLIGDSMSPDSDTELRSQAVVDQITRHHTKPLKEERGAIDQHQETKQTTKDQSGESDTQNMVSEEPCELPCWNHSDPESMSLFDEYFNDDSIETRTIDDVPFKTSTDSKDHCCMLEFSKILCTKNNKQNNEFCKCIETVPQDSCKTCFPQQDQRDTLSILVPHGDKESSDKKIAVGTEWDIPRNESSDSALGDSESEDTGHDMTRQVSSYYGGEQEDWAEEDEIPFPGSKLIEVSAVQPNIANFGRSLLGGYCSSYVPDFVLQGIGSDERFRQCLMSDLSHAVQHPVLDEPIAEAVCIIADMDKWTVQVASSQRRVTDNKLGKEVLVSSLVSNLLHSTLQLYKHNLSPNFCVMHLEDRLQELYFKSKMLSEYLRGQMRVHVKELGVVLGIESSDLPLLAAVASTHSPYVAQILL
UniProt P22087: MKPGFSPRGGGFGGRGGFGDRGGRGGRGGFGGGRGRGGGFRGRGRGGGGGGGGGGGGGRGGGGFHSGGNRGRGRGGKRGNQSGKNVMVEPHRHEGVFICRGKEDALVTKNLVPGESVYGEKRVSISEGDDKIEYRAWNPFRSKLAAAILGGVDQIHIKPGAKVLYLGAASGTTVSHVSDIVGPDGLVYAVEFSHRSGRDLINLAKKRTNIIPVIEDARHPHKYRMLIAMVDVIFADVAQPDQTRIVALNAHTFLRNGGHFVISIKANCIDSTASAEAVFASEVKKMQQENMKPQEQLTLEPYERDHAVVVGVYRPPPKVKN
UniProt Q9Y613: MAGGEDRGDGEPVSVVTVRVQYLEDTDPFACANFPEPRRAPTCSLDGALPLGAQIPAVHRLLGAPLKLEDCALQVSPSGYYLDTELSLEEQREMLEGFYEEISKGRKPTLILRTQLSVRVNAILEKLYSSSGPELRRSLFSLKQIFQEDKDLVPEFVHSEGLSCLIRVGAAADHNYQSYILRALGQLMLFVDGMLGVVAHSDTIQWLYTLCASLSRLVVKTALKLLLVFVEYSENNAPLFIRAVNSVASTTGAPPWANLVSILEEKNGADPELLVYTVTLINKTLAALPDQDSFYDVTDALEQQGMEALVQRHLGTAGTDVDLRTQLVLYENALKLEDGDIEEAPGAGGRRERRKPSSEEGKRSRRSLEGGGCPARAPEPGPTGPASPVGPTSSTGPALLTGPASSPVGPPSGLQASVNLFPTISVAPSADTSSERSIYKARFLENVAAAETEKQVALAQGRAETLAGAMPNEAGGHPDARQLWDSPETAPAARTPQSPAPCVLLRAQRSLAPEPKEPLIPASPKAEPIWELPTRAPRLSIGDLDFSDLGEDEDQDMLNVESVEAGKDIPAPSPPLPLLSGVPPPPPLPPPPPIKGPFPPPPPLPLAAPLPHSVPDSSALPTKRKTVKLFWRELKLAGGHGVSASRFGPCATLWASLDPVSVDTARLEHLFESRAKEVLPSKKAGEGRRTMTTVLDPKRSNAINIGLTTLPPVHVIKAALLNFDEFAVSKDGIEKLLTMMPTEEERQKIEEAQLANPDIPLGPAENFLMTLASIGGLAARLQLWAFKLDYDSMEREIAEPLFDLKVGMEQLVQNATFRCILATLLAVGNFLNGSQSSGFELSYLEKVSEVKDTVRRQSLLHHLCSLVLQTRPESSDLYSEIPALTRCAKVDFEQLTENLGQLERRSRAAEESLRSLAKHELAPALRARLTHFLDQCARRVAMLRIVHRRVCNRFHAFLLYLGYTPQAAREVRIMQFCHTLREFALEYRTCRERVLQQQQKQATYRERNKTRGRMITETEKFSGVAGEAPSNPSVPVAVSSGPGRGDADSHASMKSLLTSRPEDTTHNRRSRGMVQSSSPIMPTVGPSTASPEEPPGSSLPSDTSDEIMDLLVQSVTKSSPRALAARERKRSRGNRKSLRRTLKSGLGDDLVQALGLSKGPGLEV

Experiments:
Assay in all cases: log2 fold change, soluble protein after heating vs DMSO (PISA); higher = thermal stabilisation; K562 cells, 10 uM, 30 min; active = over 0.2 and 3.5 SD of the protein, either way, in both replicates (recomputed)
[1] = compound: CN1CCN(CCOc2cc(OC3CCOCC3)c3c(Nc4c(Cl)ccc5c4OCO5)ncnc3c2)CC1 [saracatinib]
Procedure, shortened: (§1)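 K562 cells (2×10^6 cells/mL) were treated with 10 μM compound for 30 min, and aliquots were heated for 3 min over 48°C-58°C. Pooled aliquots were extracted in PBS with 0.5% NP-40 at 4°C, and the supernatant after 21,000xg for 90 min was measured by TMTpro 16plex LC-MS/MS with channel sums equalised. Reported thermal stability, relative to control samples and from duplicates, is a log2 fold change.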

[2] = compound: CN1CCN(c2nc(C3=C(c4c[nH]c5ccccc45)C(=O)NC3=O)c3ccccc3n2)CC1 [sotrastaurin]
Procedure, shortened: as §1

[3] = compound: CN1CC[C@H](c2c(O)cc(O)c3c(=O)cc(-c4ccccc4Cl)oc23)[C@H](O)C1 [alvocidib]
Procedure, shortened: as §1

[4] = compound: CN1CCc2c(c3ccccc3n2Cc2ccc(C(=O)NO)cc2)C1 [Tubastatin A]
Procedure, shortened: as §1

[5] = compound: CNC(=O)C1=CC=CC=C1NC2=NC(=NC=C2Cl)NC3=C(C=C(C=C3)N4CCOCC4)OC
Procedure, shortened: as §1

[6] = compound: CNC(=O)c1ccc(Nc2ncc(C(F)(F)F)c(NCc3nccnc3N(C)S(C)(=O)=O)n2)cc1 [defactinib]
Procedure, shortened: as §1

[7] = compound: CNCc1ccc(-c2[nH]c3cc(F)cc4c3c2CCNC4=O)cc1 [rucaparib]
Procedure, shortened: as §1

[8] = compound: CNc1nc(-c2ccc3c(N)n[nH]c3c2)cc(N2C[C@@H](C(=O)NC3CCCCC3)CC[C@H]2C)n1
Procedure, shortened: as §1

[9] = compound: COC(=O)N[C@@H](C)CNc1nccc(-c2cn(C(C)C)nc2-c2cc(Cl)cc(NS(C)(=O)=O)c2F)n1 [encorafenib]
Procedure, shortened: as §1

[10] = compound: COC(=O)[C@H](CCSC)NC(=O)C1=C(C=C(C=C1)NC[C@H](CS)N)C2=CC=CC=C2
Procedure, shortened: as §1

| Target | log2 fold change [1] | log2 fold change [2] | log2 fold change [3] | log2 fold change [4] | log2 fold change [5] | log2 fold change [6] | log2 fold change [7] | log2 fold change [8] | log2 fold change [9] | log2 fold change [10] |
| --- | --- | --- | --- | --- | --- | --- | --- | --- | --- | --- |
| FKBP14 (UniProt Q9NWM8) | inactive: -0.051 | inactive: 0.072 | inactive: -0.056 | inactive: 0.018 | inactive: -0.038 | inactive: -0.026 | inactive: 0.063 | inactive: 0.104 | inactive: 0.009 | inactive: -0.067 |
| FBXO30 (UniProt Q8TB52) | inactive: 0.01 | inactive: -0.029 | inactive: -0.099 | inactive: 0.031 | inactive: -0.014 | inactive: -0.019 | inactive: -0.008 | inactive: -0.065 | inactive: 0.017 | inactive: -0.012 |
| FEZ2 isoform 2 (UniProt Q9UHY8) | inactive: 0.095 | inactive: -0.168 | inactive: -0.045 | – | – | inactive: -0.074 | – | inactive: -0.253 | – | inactive: 0.055 |
| FN3KRP (UniProt Q9HA64) | inactive: 0.028 | inactive: 0.026 | inactive: -0.006 | inactive: -0.013 | inactive: -0.024 | inactive: -0.021 | inactive: -0.03 | inactive: 0.013 | inactive: -0.017 | inactive: 0.045 |
| FGF2 (UniProt P09038) | inactive: 0.09 | inactive: 0.092 | inactive: 0.034 | inactive: 0.019 | inactive: -0.093 | inactive: 0.024 | inactive: 0.094 | inactive: 0.015 | inactive: -0.025 | inactive: 0.034 |
| FAM78A (UniProt Q5JUQ0) | inactive: -0.185 | inactive: 0.041 | inactive: -0.054 | inactive: 0.014 | inactive: 0.008 | inactive: 0.048 | inactive: 0.031 | inactive: -0.096 | inactive: 0.162 | inactive: -0.068 |
| FLT4 (UniProt P35916) | inactive: 0.069 | inactive: 0.01 | inactive: -0.046 | inactive: -0.033 | inactive: -0.124 | inactive: -0.025 | inactive: 0 | inactive: -0.061 | inactive: -0.026 | inactive: -0.063 |
| FAM210A (UniProt Q96ND0) | inactive: 0.079 | inactive: 0.113 | inactive: 0.004 | inactive: 0.023 | inactive: -0.031 | inactive: 0.021 | inactive: 0.005 | inactive: -0.044 | inactive: -0.08 | inactive: -0.006 |
| FLNC (UniProt Q14315) | inactive: 0.003 | inactive: -0.018 | inactive: -0.024 | inactive: -0.02 | inactive: 0.05 | inactive: -0.012 | inactive: 0 | inactive: -0.021 | inactive: 0.004 | inactive: -0.011 |
| FCSK isoform 2 (UniProt Q8N0W3) | inactive: 0.074 | inactive: 0.009 | inactive: -0.031 | inactive: 0.002 | inactive: -0.018 | inactive: -0.026 | inactive: 0.007 | inactive: -0.047 | inactive: -0.021 | inactive: -0.028 |
| FLYWCH2 (UniProt Q96CP2) | inactive: -0.037 | inactive: 0.087 | inactive: -0.035 | inactive: -0.031 | inactive: -0.079 | inactive: -0.045 | inactive: -0.099 | inactive: -0.033 | inactive: -0.001 | inactive: 0.095 |
| FAM210B (UniProt Q96KR6) | inactive: 0.063 | inactive: 0.075 | inactive: -0.041 | – | inactive: -0.008 | inactive: -0.067 | inactive: -0.004 | inactive: -0.018 | inactive: -0.067 | inactive: -0.027 |
| FAM219A (UniProt Q8IW50) | inactive: 0.132 | inactive: 0.051 | inactive: -0.098 | inactive: -0.015 | inactive: -0.074 | – | inactive: -0.009 | inactive: -0.023 | inactive: 0.047 | – |
| FKBP3 (UniProt Q00688) | inactive: -0.006 | inactive: 0 | – | inactive: 0.017 | inactive: 0 | inactive: -0.024 | inactive: -0.052 | inactive: 0.01 | inactive: 0.012 | inactive: 0.033 |
| FAM91A1 (UniProt Q658Y4) | inactive: 0.055 | inactive: -0.049 | – | inactive: 0.005 | inactive: 0.059 | inactive: 0 | inactive: -0.015 | inactive: 0.002 | inactive: 0.05 | inactive: -0.025 |
| FEN1 (UniProt P39748) | inactive: -0.087 | inactive: -0.028 | – | inactive: 0.116 | inactive: -0.092 | inactive: -0.139 | inactive: -0.128 | inactive: 0.183 | inactive: 0.054 | inactive: -0.087 |
| FDXR isoform 7 (UniProt P22570) | inactive: -0.027 | inactive: 0.116 | – | inactive: -0.01 | inactive: -0.012 | inactive: -0.115 | inactive: -0.035 | inactive: 0.034 | inactive: -0.034 | inactive: -0.023 |
| FAM3A (UniProt P98173) | inactive: 0.038 | inactive: 0.001 | – | inactive: 0.045 | inactive: 0.065 | inactive: -0.035 | inactive: 0.017 | inactive: 0.075 | inactive: 0.118 | inactive: -0.041 |
| FERMT3 (UniProt Q86UX7) | inactive: 0.019 | inactive: -0.016 | – | inactive: -0.003 | inactive: 0.008 | inactive: -0.069 | inactive: -0.003 | inactive: 0.036 | inactive: 0.063 | inactive: -0.03 |
| FAM241A (UniProt Q8N8J7) | inactive: -0.012 | active: -0.632 | – | inactive: -0.035 | inactive: 0.042 | inactive: 0.013 | inactive: 0.006 | inactive: -0.003 | inactive: -0.009 | inactive: 0.03 |
| FBXO6 (UniProt Q9NRD1) | inactive: 0.042 | inactive: -0.085 | – | inactive: -0.016 | inactive: 0.031 | inactive: -0.038 | inactive: -0.064 | inactive: 0.011 | inactive: 0.033 | inactive: -0.099 |
| FGGY isoform 3 (UniProt Q96C11) | inactive: -0.15 | – | inactive: 0.141 | inactive: 0.011 | inactive: 0.002 | inactive: -0.026 | – | inactive: -0.168 | – | inactive: -0.017 |
| FNTA (UniProt P49354) | inactive: 0.084 | inactive: 0.141 | – | inactive: -0.068 | inactive: -0.028 | inactive: 0.019 | inactive: -0.243 | inactive: -0.016 | inactive: -0.239 | active: 0.561 |
| FKBP7 (UniProt Q9Y680) | inactive: 0.073 | inactive: 0.056 | – | inactive: -0.026 | inactive: 0.008 | inactive: -0.032 | inactive: 0.01 | inactive: 0.031 | inactive: 0.044 | inactive: 0.036 |
| FNIP1 (UniProt Q8TF40) | inactive: -0.07 | – | inactive: 0.104 | inactive: 0.005 | inactive: 0.034 | – | – | inactive: 0.071 | – | – |
| FBL (UniProt P22087) | inactive: 0.11 | inactive: -0.016 | – | inactive: -0.022 | inactive: -0.012 | inactive: 0.375 | inactive: 0.511 | inactive: 0.002 | inactive: 0.096 | inactive: 0.023 |
| FHOD1 (UniProt Q9Y613) | inactive: -0.143 | inactive: -0.112 | – | – | inactive: -0.027 | inactive: -0.042 | inactive: 0.442 | inactive: 0.101 | inactive: 0.187 | inactive: 0.049 |

A stretch of the results above, for reference:

| Target | log2 fold change [1] | log2 fold change [2] | log2 fold change [3] | log2 fold change [4] | log2 fold change [5] | log2 fold change [6] | log2 fold change [7] | log2 fold change [8] | log2 fold change [9] | log2 fold change [10] |
| --- | --- | --- | --- | --- | --- | --- | --- | --- | --- | --- |
| FKBP3 (UniProt Q00688) | inactive: -0.006 | inactive: 0 | – | inactive: 0.017 | inactive: 0 | inactive: -0.024 | inactive: -0.052 | inactive: 0.01 | inactive: 0.012 | inactive: 0.033 |
| FAM91A1 (UniProt Q658Y4) | inactive: 0.055 | inactive: -0.049 | – | inactive: 0.005 | inactive: 0.059 | inactive: 0 | inactive: -0.015 | inactive: 0.002 | inactive: 0.05 | inactive: -0.025 |
